This is an account of results in publication PMC8639922, “KSHV transactivator-derived small peptide traps coactivators to attenuate MYC and inhibits leukemia and lymphoma cell growth” (Communications Biology, 2021).

The chains behind the UniProt entries cited, without tags or fusion partners.
UniProt F5HCV3: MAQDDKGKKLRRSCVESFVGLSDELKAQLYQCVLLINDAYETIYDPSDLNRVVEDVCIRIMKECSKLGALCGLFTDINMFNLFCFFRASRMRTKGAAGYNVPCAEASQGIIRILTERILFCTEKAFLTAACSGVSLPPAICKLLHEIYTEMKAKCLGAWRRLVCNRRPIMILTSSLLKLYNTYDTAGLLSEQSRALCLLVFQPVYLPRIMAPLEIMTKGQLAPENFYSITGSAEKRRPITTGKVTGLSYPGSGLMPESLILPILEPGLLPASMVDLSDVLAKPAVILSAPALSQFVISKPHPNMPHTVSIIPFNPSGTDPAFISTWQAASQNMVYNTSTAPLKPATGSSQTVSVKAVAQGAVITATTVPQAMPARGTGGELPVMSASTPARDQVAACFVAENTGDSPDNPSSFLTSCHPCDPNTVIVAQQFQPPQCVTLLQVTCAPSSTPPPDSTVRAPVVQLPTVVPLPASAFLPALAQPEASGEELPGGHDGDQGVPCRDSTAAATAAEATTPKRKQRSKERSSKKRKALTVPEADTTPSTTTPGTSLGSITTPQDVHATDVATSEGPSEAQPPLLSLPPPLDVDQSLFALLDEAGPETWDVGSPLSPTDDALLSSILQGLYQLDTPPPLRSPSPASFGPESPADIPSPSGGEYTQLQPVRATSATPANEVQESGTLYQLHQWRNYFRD
UniProt Q15596: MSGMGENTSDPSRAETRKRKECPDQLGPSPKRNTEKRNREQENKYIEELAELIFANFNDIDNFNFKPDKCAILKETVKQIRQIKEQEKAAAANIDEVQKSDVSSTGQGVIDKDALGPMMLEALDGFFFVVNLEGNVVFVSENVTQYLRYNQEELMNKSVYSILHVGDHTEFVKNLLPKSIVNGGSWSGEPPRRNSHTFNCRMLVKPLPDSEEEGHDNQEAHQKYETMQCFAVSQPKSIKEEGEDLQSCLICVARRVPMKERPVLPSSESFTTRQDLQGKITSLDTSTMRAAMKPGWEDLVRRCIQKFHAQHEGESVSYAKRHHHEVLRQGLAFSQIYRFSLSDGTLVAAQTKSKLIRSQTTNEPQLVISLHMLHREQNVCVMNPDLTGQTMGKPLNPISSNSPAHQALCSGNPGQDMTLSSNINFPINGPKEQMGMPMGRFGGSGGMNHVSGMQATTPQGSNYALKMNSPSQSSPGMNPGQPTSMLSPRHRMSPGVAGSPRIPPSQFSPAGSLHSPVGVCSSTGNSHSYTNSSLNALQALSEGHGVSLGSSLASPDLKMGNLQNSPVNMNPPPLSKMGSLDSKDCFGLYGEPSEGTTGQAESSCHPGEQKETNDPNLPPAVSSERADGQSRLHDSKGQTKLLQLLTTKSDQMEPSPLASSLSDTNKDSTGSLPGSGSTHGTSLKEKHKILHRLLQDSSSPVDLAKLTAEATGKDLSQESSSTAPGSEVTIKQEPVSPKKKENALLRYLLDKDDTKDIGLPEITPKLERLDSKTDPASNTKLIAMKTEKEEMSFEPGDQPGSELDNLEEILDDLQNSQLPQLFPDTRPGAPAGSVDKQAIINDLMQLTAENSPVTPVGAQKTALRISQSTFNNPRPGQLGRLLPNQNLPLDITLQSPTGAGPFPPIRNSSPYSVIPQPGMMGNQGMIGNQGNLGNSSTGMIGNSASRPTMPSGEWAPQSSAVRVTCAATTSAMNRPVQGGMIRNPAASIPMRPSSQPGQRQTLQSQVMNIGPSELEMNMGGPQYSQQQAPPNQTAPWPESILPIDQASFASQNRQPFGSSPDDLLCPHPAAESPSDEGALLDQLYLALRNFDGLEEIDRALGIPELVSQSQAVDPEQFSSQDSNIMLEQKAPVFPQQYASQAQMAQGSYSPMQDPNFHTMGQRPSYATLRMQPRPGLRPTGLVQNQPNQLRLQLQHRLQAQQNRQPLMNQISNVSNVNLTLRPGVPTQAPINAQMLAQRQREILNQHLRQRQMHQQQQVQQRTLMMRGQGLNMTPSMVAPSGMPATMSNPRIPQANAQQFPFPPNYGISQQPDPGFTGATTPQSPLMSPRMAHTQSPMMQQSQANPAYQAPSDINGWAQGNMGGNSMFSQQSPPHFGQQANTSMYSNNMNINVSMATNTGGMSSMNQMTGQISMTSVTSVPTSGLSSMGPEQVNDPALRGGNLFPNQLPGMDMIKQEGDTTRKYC

This assay has as its target Flag-tagx3-HA-tagx3 (F3H3)-K-Rta, KSHV replication and transactivation protein (Kaposi's sarcoma-associated herpesvirus (human herpesvirus 8)) (UniProt F5HCV3). The assay is described as follows: co-IP.

No constants are given. Whether binding was seen depends on the method and setting. Binding seen in cells or lysates may run through a third protein. Some binding calls cover weakened binding; strength is not graded here.

As to “Nuclear receptor coactivator 2 (from UniProt Q15596 1-1464)”, the binding result is listed as “binds”.
